Laboratory results: publication PMC5635695, “More than Enzymes That Make or Break Cyclic Di-GMP—Local Signaling in the Interactome of GGDEF/EAL Domain Proteins of Escherichia coli” (mBio, 2017)
These are yes or no findings as the source states them, for the method shown. Some entries that bind do so weakly or less than the wild type. Blank lines part the entries; values can stand above or below the binder they belong to.

Chains of the proteins cited; added tags and fusions are not shown.
UniProt P13445: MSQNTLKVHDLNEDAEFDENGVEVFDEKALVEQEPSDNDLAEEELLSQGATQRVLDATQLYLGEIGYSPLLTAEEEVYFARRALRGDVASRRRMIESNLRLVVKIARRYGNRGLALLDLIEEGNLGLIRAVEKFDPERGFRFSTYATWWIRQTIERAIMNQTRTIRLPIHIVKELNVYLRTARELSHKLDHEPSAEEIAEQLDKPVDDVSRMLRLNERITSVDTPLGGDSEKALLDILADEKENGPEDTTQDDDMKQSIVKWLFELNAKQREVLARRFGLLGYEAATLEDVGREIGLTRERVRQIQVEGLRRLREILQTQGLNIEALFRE

Legend:
Experiment in all cases: two-hybrid; Bacterio-Match II bacterial two-hybrid in an E. coli reporter strain (derivative of XL1-Blue MRF'); hybrids with lambda cI-NTD (pBT) and RNAP alpha-NTD (pTRG), vector swaps; HIS3 reporter, selective plates with 5 mM 3-AT, 50 uM IPTG, 24 h at 37°C then 48 h at 28°C; CFU ratio selective/nonselective normalised to the RpoS/RssB interaction
[1] = biological target: T1, isolated degenerate GGDEF domain of PdeR (E. coli K-12) (UniProt P77334)
T1 sequence: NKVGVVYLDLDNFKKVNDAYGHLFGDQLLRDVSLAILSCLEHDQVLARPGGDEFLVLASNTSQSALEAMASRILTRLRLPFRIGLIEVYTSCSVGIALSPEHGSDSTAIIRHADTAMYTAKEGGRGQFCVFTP

[2] = biological target: isolated GGDEF domain of DgcM (E. coli K-12) (UniProt P77302)
[3] = biological target: T2, isolated GGDEF domain of DgcT (E. coli K-12) (UniProt P75908)
T2 sequence: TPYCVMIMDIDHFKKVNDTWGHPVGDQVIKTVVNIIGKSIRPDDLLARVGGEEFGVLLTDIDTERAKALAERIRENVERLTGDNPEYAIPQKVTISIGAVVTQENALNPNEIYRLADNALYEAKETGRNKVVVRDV

[4] = biological target: stationary-phase sigma factor RpoS (E. coli) (UniProt P13445)
[5] = biological target: T3, PdeR (E. coli K-12) (UniProt P77334)
T3 sequence: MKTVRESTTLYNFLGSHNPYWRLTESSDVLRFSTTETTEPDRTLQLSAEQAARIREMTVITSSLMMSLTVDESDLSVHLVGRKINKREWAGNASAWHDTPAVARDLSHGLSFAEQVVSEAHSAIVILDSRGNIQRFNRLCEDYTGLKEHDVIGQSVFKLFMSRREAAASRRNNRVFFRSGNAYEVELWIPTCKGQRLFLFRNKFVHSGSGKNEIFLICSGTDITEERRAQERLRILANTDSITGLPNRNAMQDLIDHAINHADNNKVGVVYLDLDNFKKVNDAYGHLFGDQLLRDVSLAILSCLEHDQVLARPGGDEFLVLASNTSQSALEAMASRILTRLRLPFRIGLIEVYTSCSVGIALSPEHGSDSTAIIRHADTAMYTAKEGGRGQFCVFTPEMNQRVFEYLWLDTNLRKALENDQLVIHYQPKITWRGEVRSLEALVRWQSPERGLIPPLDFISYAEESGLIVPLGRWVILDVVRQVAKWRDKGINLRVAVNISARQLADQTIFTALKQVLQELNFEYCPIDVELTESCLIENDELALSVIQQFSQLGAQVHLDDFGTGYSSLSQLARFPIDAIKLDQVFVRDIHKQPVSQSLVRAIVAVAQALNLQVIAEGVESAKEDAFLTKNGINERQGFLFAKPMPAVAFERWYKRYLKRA

[6] = biological target: isolated GGDEF domain of DgcO (E. coli K-12) (UniProt P0AA89)
[7] = biological target: isolated degenerate GGDEF domain of PdeK (E. coli K-12) (UniProt P37649)

binding [1]: binds
B1: isolated GGDEF domain of DgcE (domain or fragment, UniProt P38097 712-845)
chain: QRHALVFIDLDRFKAVNDSAGHAAGDALLRELASLMLSMLRSSDVLARLGGDEFGLLLPDCNVESARFIATRIISAVNDYHFIWEGRVHRVGASAGITLIDDNNHQAAEVMSQADIACYASKNGGRGRVTVYEP

binding [2]: binds
B2: isolated GGDEF domain of DgcM (domain or fragment, UniProt P77302 283-410)
chain: QDYSLLLIDTDRFKHINDLYGHSKGDEVLCALARTLESCARKGDLVFRWGGEEFVLLLPRTPLDTALSLAETIRVSVAKVSISGLPRFTVSIGVAHHEGNESIDELFKRVDDALYRAKNDGRNRVLAA

binding [3]: binds
B3: isolated degenerate GGDEF domain of CsrD (domain or fragment, UniProt P13518 254-387)
chain: THGIVMMIRLPDFNMLSDTWGHSQVEEQFFTLTNLLSTFMMRYPGALLARYHRSDFAALLPHRTLKEAESIAGQLIKAVDTLPNNKMLDRDDMIHIGICAWRSGQDTEQVMEHAESATRNAGLQGGNSWAIYDD

binding [4]: binds
B4: RssB, RpoS-binding proteolytic targeting factor (protein, UniProt P0AEV1 1-337)
chain: MTQPLVGKQILIVEDEQVFRSLLDSWFSSLGATTVLAADGVDALELLGGFTPDLMICDIAMPRMNGLKLLEHIRNRGDQTPVLVISATENMADIAKALRLGVEDVLLKPVKDLNRLREMVFACLYPSMFNSRVEEEERLFRDWDAMVDNPAAAAKLLQELQPPVQQVISHCRVNYRQLVAADKPGLVLDIAALSENDLAFYCLDVTRAGHNGVLAALLLRALFNGLLQEQLAHQNQRLPELGALLKQVNHLLRQANLPGQFPLLVGYYHRELKNLILVSAGLNATLNTGEHQVQISNGVPLGTLGNAYLNQLSQRCDAWQCQIWGTGGRLRLMLSAE

binding [5]: binds
B5: DgcO (enzyme, UniProt P0AA89 1-460)
chain: MEMYFKRMKDEWTGLVEQADPPIRAKAAEIAVAHAHYLSIEFYRIVRIDPHAEEFLSNEQVERQLKSAMERWIINVLSAQVDDVERLIQIQHTVAEVHARIGIPVEIVEMGFRVLKKILYPVIFSSDYSAAEKLQVYHFSINSIDIAMEVMTRAFTFSDSSASKEDENYRIFSLLENAEEEKERQIASILSWEIDIIYKILLDSDLGSSLPLSQADFGLWFNHKGRHYFSGIAEVGHISRLIQDFDGIFNQTMRNTRNLNNRSLRVKFLLQIRNTVSQIITLLRELFEEVSRHEVGMDVLTKLLNRRFLPTIFKREIAHANRTGTPLSVLIIDVDKFKEINDTWGHNTGDEILRKVSQAFYDNVRSSDYVFRYGGDEFIIVLTEASENETLRTAERIRSRVEKTKLKAANGEDIALSLSIGAAMFNGHPDYERLIQIADEALYIAKRRGRNRVELWKASL

binding [1]: binds
B6: isolated degenerate GGDEF domain of PdeR (domain or fragment, UniProt P77334 265-397)
chain: T1 sequence

binding [6]: binds | binding [1]: binds
B7: isolated GGDEF domain of DgcO (domain or fragment, UniProt P0AA89 325-458)
chain: TPLSVLIIDVDKFKEINDTWGHNTGDEILRKVSQAFYDNVRSSDYVFRYGGDEFIIVLTEASENETLRTAERIRSRVEKTKLKAANGEDIALSLSIGAAMFNGHPDYERLIQIADEALYIAKRRGRNRVELWKA

binding [1]: binds
B8: isolated GGDEF domain of DgcN (domain or fragment, UniProt P46139 278-408)
chain: KTSALLFLDGDNFKYINDTWGHATGDRVLIEIAKRLAEFGGLRHKAYRLGGDEFAMVLYDVQSESEVQQICSALTQIFNLPFDLHNGHQTTMTLSIGYAMTIEHASAEKLQELADHNMYQAKHQRAEKLVR

binding [7]: binds
B9: isolated degenerate GGDEF domain of PdeK (domain or fragment, UniProt P37649 268-400)
chain: QTTALMIITCETLRDTAGVLKEAQREILLLTLVEKLKSVLSPRMILAQISGYDFAVIANGVQEPWHAITLGQQVLTIMSERLPIERIQLRPHCSIGVAMFYGDLTAEQLYSRAISAAFTARHKGKNQIQFFDP

binding [5]: binds
B10: DgcM (enzyme, UniProt P77302 1-410)
chain: MITHNFNTLDLLTSPVWIVSPFEEQLIYANSAAKLLMQDLTFSQLRTGPYSVSSQKELPKYLSDLQNQHDIIEILTVQRKEEETALSCRLVLRKLTETEPVIIFEGIEAPATLGLKASRSANYQRKKQGFYARFFLTNSAPMLLIDPSRDGQIVDANLAALNFYGYNHETMCQKHTWEINMLGRRVMPIMHEISHLPGGHKPLNFVHKLADGSTRHVQTYAGPIEIYGDKLMLCIVHDITEQKRLEEQLEHAAHHDAMTGLLNRRQFYHITEPGQMQHLAIAQDYSLLLIDTDRFKHINDLYGHSKGDEVLCALARTLESCARKGDLVFRWGGEEFVLLLPRTPLDTALSLAETIRVSVAKVSISGLPRFTVSIGVAHHEGNESIDELFKRVDDALYRAKNDGRNRVLAA
